Assay [1] concerns the target Rap1A (human, SKCO-15) (human (endogenous in SKCO-15)) (UniProt P62834). In words: co-IP; lysates of human SKCO-15 IEC, control and JAM-A knockdown; relaxation lysis buffer with 1% octyl-β-glucoside; IP with antibodies (5 μg/mL, overnight, 4°C), protein A or G Dynabeads; immunoblot. In general terms: In western blotting, separated proteins are transferred to a membrane and probed.

Amino acid sequences for entries named in this document (tags omitted). A change or cut given only in a name is not applied to a line headed by its entry. Residues count along the entry.
UniProt P62834: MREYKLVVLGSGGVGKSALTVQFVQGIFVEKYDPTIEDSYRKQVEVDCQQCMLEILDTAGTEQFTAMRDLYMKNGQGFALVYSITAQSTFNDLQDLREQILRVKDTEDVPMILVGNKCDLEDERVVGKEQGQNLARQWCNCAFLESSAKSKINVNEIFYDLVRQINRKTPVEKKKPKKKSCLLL
UniProt P09055, residues 21-798: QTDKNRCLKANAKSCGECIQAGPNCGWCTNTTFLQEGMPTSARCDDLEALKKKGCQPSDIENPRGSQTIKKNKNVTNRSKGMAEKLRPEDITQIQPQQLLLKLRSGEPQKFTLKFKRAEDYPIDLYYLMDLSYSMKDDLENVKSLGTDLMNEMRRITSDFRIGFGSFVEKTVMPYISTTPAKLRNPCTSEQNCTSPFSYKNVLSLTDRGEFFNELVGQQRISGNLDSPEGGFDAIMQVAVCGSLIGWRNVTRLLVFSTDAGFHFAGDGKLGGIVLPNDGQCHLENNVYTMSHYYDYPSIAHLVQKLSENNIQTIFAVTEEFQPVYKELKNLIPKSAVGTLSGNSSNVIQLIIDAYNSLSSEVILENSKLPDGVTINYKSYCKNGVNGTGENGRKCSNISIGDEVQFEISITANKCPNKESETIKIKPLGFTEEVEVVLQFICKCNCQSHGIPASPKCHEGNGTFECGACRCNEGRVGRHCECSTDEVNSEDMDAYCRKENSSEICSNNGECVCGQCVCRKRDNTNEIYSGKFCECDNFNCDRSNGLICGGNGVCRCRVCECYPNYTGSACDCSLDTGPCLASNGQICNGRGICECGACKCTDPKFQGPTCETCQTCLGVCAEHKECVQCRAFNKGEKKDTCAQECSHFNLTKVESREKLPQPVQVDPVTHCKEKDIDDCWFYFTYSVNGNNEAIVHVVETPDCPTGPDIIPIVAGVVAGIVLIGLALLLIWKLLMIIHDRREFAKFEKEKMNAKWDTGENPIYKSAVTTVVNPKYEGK
UniProt P62835: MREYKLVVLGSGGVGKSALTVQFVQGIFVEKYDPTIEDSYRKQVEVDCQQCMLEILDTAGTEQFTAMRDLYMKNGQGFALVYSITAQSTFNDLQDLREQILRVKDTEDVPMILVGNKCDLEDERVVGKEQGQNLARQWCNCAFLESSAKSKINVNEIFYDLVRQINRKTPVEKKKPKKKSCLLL
UniProt P05556: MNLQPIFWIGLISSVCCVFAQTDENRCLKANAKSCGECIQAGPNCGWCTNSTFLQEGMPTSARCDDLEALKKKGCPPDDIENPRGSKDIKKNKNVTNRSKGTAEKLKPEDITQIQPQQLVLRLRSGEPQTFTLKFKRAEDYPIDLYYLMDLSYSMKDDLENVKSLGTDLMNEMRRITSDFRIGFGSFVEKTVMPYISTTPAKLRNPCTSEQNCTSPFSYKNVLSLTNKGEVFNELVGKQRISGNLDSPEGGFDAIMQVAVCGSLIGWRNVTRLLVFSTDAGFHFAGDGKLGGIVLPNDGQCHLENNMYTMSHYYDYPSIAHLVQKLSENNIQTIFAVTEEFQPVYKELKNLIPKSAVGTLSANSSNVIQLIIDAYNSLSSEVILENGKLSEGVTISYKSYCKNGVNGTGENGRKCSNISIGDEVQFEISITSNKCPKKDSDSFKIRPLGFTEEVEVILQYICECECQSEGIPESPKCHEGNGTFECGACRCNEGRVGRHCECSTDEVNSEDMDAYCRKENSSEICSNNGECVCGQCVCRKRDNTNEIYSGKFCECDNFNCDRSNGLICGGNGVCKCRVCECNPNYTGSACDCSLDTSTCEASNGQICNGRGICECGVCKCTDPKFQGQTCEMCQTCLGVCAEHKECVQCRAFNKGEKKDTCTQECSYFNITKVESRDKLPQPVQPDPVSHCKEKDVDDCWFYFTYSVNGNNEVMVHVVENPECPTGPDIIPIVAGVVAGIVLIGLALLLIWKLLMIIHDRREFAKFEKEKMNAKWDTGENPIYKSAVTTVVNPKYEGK

In assay [2] the target is β1 integrin (mouse (endogenous in primary colonic epithelial cells)) (UniProt P09055). In words: co-IP; lysates of spread primary mouse IEC (2D colonoids) from Jam-a fl/fl and tamoxifen-treated Jam-a ERdeltaIEC mice; relaxation lysis buffer (10 mM HEPES, 10 mM NaCl, 3.5 mM MgCl2, 100 mM KCl) with 1% octyl-β-glucoside; IP with anti-Rap1A or anti-β1 integrin antibody (5 μg/mL, overnight, 4°C), protein A or G Dynabeads; immunoblot for talin, β1 integrin, Rap1A.

Assay [3] deals with Rap1A (mouse (endogenous in primary colonic epithelial cells)) (UniProt P62835). Described as above.
Assay [4] addresses β1 integrin (human, SKCO-15) (human (endogenous in SKCO-15)) (UniProt P05556). Nature of the assay: co-IP; lysates of human SKCO-15 IEC, control and JAM-A knockdown; relaxation lysis buffer with 1% octyl-β-glucoside; IP with antibodies (5 μg/mL, overnight, 4°C), protein A or G Dynabeads; immunoblot.

Results are given in words; binding and its absence hold for the method and conditions named. In cells and extracts the contact can be indirect. Some results given as binding are weak or reduced against the parent protein; the word gives no strength.

For the substance “β1 integrin (human, SKCO-15) (from UniProt P05556 21-798) (receptor)”, the binding entry in assay [1] was “binds”.
Rap1A (from UniProt P62835 1-184): in assay [2], the binding result is “binds”.
As to “β1 integrin (from UniProt P09055 21-798) (receptor)”, the binding entry in assay [3] was “binds”.
For “Rap1A (human, SKCO-15) (from UniProt P62834 1-184)”, in assay [4], the binding entry is listed as “binds”.

(Values after paper PMC9536273.)
